# The list shows only some results of the screen, not a fair sample: it is rich in T/C values a quarter to a half above the control, in often repeated tests (any T/C) and in doses without a T/C. Other doses and runs of a compound stand elsewhere. T/C is the treated group as % of the vehicle group. Some entries give survivors of the animals treated and no T/C: the source holds a T/C of zero for them, seemingly a mark for toxic or unscored doses. Some doses without a T/C left all or most animals alive at the check, yet need not have been tolerated: survival well below the control is almost never listed, so the zero probably covers shortened survival too. Counts of survivors are from the toxicity check (mostly the fifth day) where no day follows; animals may have died later. Schedule codes are those of the source, read here as Q, the interval in days (D) or hours (H), X, the number of doses. Additions like (4×) count equal records among those shown. Some doses were run more than once; the values are given in rising order. Where survival is the endpoint, the PubChem record calls one and a half times the control and up active, and a quarter to a half above the control has no call in these data; cut-offs in other NCI protocols can differ. Some T/C values carry the count of animals alive at the toxicity check (mostly the fifth day); where none is given, no animal had died by that day.
# Tested on: CD2F1 mice, L1210 leukemia ip, survival T/C
# Assay: NCI In Vivo Anticancer Drug Screen. Data for tumor model L1210 Leukemia (intraperitoneal) in CD2F1 (CDF1) mice
# Settings: higher T/C = longer survival
# Method in brief: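 Activity against a transplanted murine tumor was judged by comparing the compound group with a vehicle group. The outcome in the treated animals was divided by that in the controls.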
# [1] = T/C endpoint: mean survival time, dose: 300.0 mg/kg/injection, schedule: Q01DX001 (ip), vehicle: saline
# [2] = T/C endpoint: mean survival time, dose: 200.0 mg/kg/injection, schedule: Q01DX001 (ip), vehicle: Klucel (hydroxypropylcellulose) (HPC)
# [3] = T/C endpoint: mean survival time, dose: 400.0 mg/kg/injection, schedule: Q01DX001 (ip), vehicle: Klucel (hydroxypropylcellulose) (HPC)
# [4] = T/C endpoint: mean survival time, dose: 100.0 mg/kg/injection, schedule: Q04DX003 (ip), vehicle: saline with Tween-80
# [5] = T/C endpoint: mean survival time, dose: 200.0 mg/kg/injection, schedule: Q04DX003 (ip), vehicle: saline with Tween-80
# [6] = T/C endpoint: mean survival time, dose: 400.0 mg/kg/injection, schedule: Q04DX003 (ip), vehicle: saline with Tween-80
# [7] = T/C endpoint: mean survival time, dose: 100.0 mg/kg/injection, schedule: Q01DX005 (ip), vehicle: other
# [8] = T/C endpoint: mean survival time, dose: 200.0 mg/kg/injection, schedule: Q01DX005 (ip), vehicle: other
# [9] = T/C endpoint: mean survival time, dose: 100.0 mg/kg/injection, schedule: Q01DX009 (ip), vehicle: saline with Tween-80
# [10] = T/C endpoint: mean survival time, dose: 200.0 mg/kg/injection, schedule: Q01DX009 (ip), vehicle: saline with Tween-80
# [11] = T/C endpoint: mean survival time, dose: 400.0 mg/kg/injection, schedule: Q01DX009 (ip), vehicle: saline with Tween-80
# [12] = T/C endpoint: mean survival time, dose: 25.0 mg/kg/injection, schedule: Q01DX009 (ip), vehicle: saline with Tween-80
# [13] = T/C endpoint: mean survival time, dose: 200.0 mg/kg/injection, schedule: Q04DX002 (ip), vehicle: saline with Tween-80
# [14] = T/C endpoint: mean survival time, dose: 400.0 mg/kg/injection, schedule: Q04DX002 (ip), vehicle: saline with Tween-80
smiles,measurement,setting,value
O=S(=O)(F)c1cc(Cl)ccc1C[P+](c1ccccc1)(c1ccccc1)c1ccccc1,survivor count,"T/C endpoint: mean survival time, dose: 75.0 mg/kg/injection, schedule: Q01DX001 (ip), vehicle: saline",0 of 6
same,survivor count,"T/C endpoint: mean survival time, dose: 150.0 mg/kg/injection, schedule: Q01DX001 (ip), vehicle: saline",1 of 6
same,survivor count,[1],1 of 6
CN1C(=O)NC(c2cccc(N(CCCl)CCCl)c2)C1=O (stereo not drawn),T/C,"T/C endpoint: mean survival time, dose: 50.0 mg/kg/injection, schedule: Q01DX001 (ip), vehicle: Klucel (hydroxypropylcellulose) (HPC)",138 % of control
same,T/C,"T/C endpoint: mean survival time, dose: 100.0 mg/kg/injection, schedule: Q01DX001 (ip), vehicle: Klucel (hydroxypropylcellulose) (HPC)",129 and 134 % of control
same,survivor count,[2],6 of 6
same,survivor count,[3],5 of 6
O=C(O)c1cccc2c1-c1ccccc1C(Br)C2Br (stereo not drawn),survivor count,"T/C endpoint: mean survival time, dose: 200.0 mg/kg/injection, schedule: Q01DX005 (ip), vehicle: saline with Tween-80",0 of 3
CO[C@@H]1C2=CC=CC=C[C@H]2n2c(=O)n(C)c(=O)n21,survivor count,"T/C endpoint: median survival time, dose: 300.0 mg/kg/injection, schedule: Q01DX005 (ip), vehicle: other",3 of 6
same,survivor count,"T/C endpoint: median survival time, dose: 600.0 mg/kg/injection, schedule: Q01DX005 (ip), vehicle: other",0 of 6
O=C(CC1NCCCC1O)Cn1cnc2cc3c(cc2c1=O)OCO3 (stereo not drawn),survivor count,[4],1 of 6
same,survivor count,[5],0 of 6
same,survivor count,[6],0 of 6
CCCCCCC[CH2][Sn]1([CH2]CCCCCCC)[O]C2C(CO)OC(n3ccc4c(N)ncnc43)C2[O]1 (stereo not drawn),survivor count,"T/C endpoint: mean survival time, dose: 12.5 mg/kg/injection, schedule: Q01DX005 (ip), vehicle: other",1 of 6 and 4 of 6
same,survivor count,"T/C endpoint: mean survival time, dose: 25.0 mg/kg/injection, schedule: Q01DX005 (ip), vehicle: other",0 of 6
same,survivor count,"T/C endpoint: mean survival time, dose: 50.0 mg/kg/injection, schedule: Q01DX005 (ip), vehicle: other",0 of 6
same,survivor count,[7],0 of 6
same,survivor count,[8],0 of 6
Cc1ccc(C2CC3c4ccccc4C2C2CCCCN32)cc1 (stereo not drawn),survivor count,"T/C endpoint: mean survival time, dose: 3.13 mg/kg/injection, schedule: Q01DX009 (ip), vehicle: water",6 of 6
same,survivor count,"T/C endpoint: mean survival time, dose: 25.0 mg/kg/injection, schedule: Q01DX009 (ip), vehicle: water",6 of 6 (2×)
same,survivor count,"T/C endpoint: mean survival time, dose: 50.0 mg/kg/injection, schedule: Q01DX009 (ip), vehicle: water",0 of 6 and 3 of 6
same,survivor count,"T/C endpoint: mean survival time, dose: 100.0 mg/kg/injection, schedule: Q01DX009 (ip), vehicle: water",0 of 6 (2×)
same,survivor count,"T/C endpoint: mean survival time, dose: 200.0 mg/kg/injection, schedule: Q01DX009 (ip), vehicle: water",0 of 6 (2×)
same,survivor count,"T/C endpoint: mean survival time, dose: 400.0 mg/kg/injection, schedule: Q01DX009 (ip), vehicle: water",0 of 6 (2×)
CC(C)(C#N)C(C)(C)C#N,survivor count,[4],0 of 6
same,survivor count,[5],0 of 6
same,survivor count,[6],0 of 6
O=[N+]([O-])c1cccc(N=Nn2cccc2)c1,survivor count,"T/C endpoint: mean survival time, dose: 200.0 mg/kg/injection, schedule: Q01DX001 (ip), vehicle: saline with Tween-80",3 of 6
same,survivor count,"T/C endpoint: mean survival time, dose: 400.0 mg/kg/injection, schedule: Q01DX001 (ip), vehicle: saline with Tween-80",0 of 6
O=c1[nH]cnc2c1ncn2C1OC(CO)C(O)C1O.[Ag+] (stereo not drawn),survivor count,[7],0 of 6
same,survivor count,[8],0 of 6
Cc1oc2c(C)c3oc(=O)cc(C)c3cc2c1CCl,survivor count,[9],4 of 6
same,survivor count,[10],0 of 6
same,survivor count,[11],0 of 6
Cc1cccc(C(=O)OCCBr)c1,survivor count,"T/C endpoint: mean survival time, dose: 150.0 mg/kg/injection, schedule: Q01DX009 (ip), vehicle: saline with Tween-80",3 of 6
same,survivor count,"T/C endpoint: mean survival time, dose: 300.0 mg/kg/injection, schedule: Q01DX009 (ip), vehicle: saline with Tween-80",0 of 6
O=Cc1ccccc1,survivor count,"T/C endpoint: mean survival time, dose: 800.0 mg/kg/injection, schedule: Q01DX009 (ip), vehicle: Klucel (hydroxypropylcellulose) (HPC)",0 of 6
c1ccc(OCCCNc2ccccn2)cc1,survivor count,[5],0 of 3
same,survivor count,[6],0 of 3
CC1(C)N=C(N)N=C(N)N1c1cccc(CC(=O)Nc2ccc(S(=O)(=O)F)cc2)c1,T/C,"T/C endpoint: mean survival time, dose: 200.0 mg/kg/injection, schedule: Q01DX009 (ip), vehicle: saline",125 % of control
same,T/C,"T/C endpoint: mean survival time, dose: 400.0 mg/kg/injection, schedule: Q01DX009 (ip), vehicle: saline",129 % of control [5 of 6 alive]
C=C1C(=O)OC(CCCCCCCCCCCCC)C1C(=O)O (stereo not drawn),survivor count,"T/C endpoint: mean survival time, dose: 80.0 mg/kg/injection, schedule: Q04DX002 (ip), vehicle: saline with Tween-80",0 of 3
same,survivor count,"T/C endpoint: mean survival time, dose: 160.0 mg/kg/injection, schedule: Q04DX002 (ip), vehicle: saline with Tween-80",0 of 3
CCC[CH2][Sn](=[S])[CH2]CCC,T/C,"T/C endpoint: mean survival time, dose: 3.13 mg/kg/injection, schedule: Q04DX003 (ip), vehicle: other",135 % of control
same,survivor count,"T/C endpoint: mean survival time, dose: 100.0 mg/kg/injection, schedule: Q04DX003 (ip), vehicle: other",6 of 6
same,survivor count,"T/C endpoint: mean survival time, dose: 200.0 mg/kg/injection, schedule: Q04DX003 (ip), vehicle: other",6 of 6
same,survivor count,"T/C endpoint: mean survival time, dose: 400.0 mg/kg/injection, schedule: Q04DX003 (ip), vehicle: other",6 of 6
Cc1ccc(S(=O)(=O)N=N/C=C2/C=CC=CN2O)cc1,T/C,"T/C endpoint: mean survival time, dose: 80.0 mg/kg/injection, schedule: Q01DX009 (ip), vehicle: Klucel (hydroxypropylcellulose) (HPC)",125 % of control
same,T/C,"T/C endpoint: mean survival time, dose: 175.0 mg/kg/injection, schedule: Q01DX009 (ip), vehicle: Klucel (hydroxypropylcellulose) (HPC)",126 % of control
C=CC1(C)CC(=O)C2(O)C(C)(O1)C(OC(C)=O)C(O)C1C(C)(C)CCC(O)C12C (stereo not drawn),survivor count,"T/C endpoint: median survival time, dose: 32.0 mg/kg/injection, schedule: Q01DX005 (ip), vehicle: other",3 of 6
same,survivor count,"T/C endpoint: median survival time, dose: 64.0 mg/kg/injection, schedule: Q01DX005 (ip), vehicle: other",0 of 6
O=C(O)c1ccccc1N(CCO)CCCl,T/C,"T/C endpoint: mean survival time, dose: 6.25 mg/kg/injection, schedule: Q01DX009 (ip), vehicle: saline with Tween-80",138 % of control
same,T/C,"T/C endpoint: mean survival time, dose: 12.5 mg/kg/injection, schedule: Q01DX009 (ip), vehicle: saline with Tween-80",132 and 138 % of control
same,survivor count,"T/C endpoint: mean survival time, dose: 20.0 mg/kg/injection, schedule: Q01DX009 (ip), vehicle: Klucel (hydroxypropylcellulose) (HPC)",3 of 6
same,survivor count,[12],0 of 6 and 1 of 6
same,survivor count,"T/C endpoint: mean survival time, dose: 40.0 mg/kg/injection, schedule: Q01DX009 (ip), vehicle: Klucel (hydroxypropylcellulose) (HPC)",0 of 6
Nc1ncnc2oc(-c3ccccc3)c(-c3ccccc3)c12,survivor count,"T/C endpoint: mean survival time, dose: 100.0 mg/kg/injection, schedule: Q04DX002 (ip), vehicle: saline with Tween-80",3 of 3
same,survivor count,[13],3 of 3
same,survivor count,[14],3 of 3
C1CC[N-]CC1.CC(=N\O)/C(C)=N/O.CC(=N\O)/C(C)=N/O.[CH2-]CCN1CCOCC1.[Co+2],survivor count,[9],3 of 6
O=C(O)CCC(NC(=O)COc1ccc(Cl)cc1Cl)C(=O)O (stereo not drawn),survivor count,[13],3 of 3
O=C1CN2CCC1CC2,survivor count,"T/C endpoint: mean survival time, dose: 400.0 mg/kg/injection, schedule: Q04DX003 (ip), vehicle: saline",0 of 6
CC1CCC2[S][Sn]3([NH]C2C1)[NH]C1CC(C)CCC1[S]3 (stereo not drawn),survivor count,[14],1 of 3
CCC(O)C[As](=O)(O)c1ccc(Cl)cc1 (stereo not drawn),survivor count,[12],0 of 6
same,survivor count,"T/C endpoint: mean survival time, dose: 50.0 mg/kg/injection, schedule: Q01DX009 (ip), vehicle: saline with Tween-80",0 of 6
same,survivor count,[9],0 of 6 (2×)
same,survivor count,[10],1 of 6
same,survivor count,[11],0 of 6
Nc1ncnc2nc(SCc3ccccc3)[nH]c12,survivor count,[2],0 of 6
same,survivor count,[3],0 of 6
OCCN1CCCCCCC1,survivor count,[1],0 of 6
CC(C)(C)CC(C)(C)c1ccc(OCCOC(=O)c2ccccc2C(=O)O)cc1,survivor count,[2],3 of 6
same,survivor count,[3],0 of 6
